No constants are given. Whether binding was seen depends on the method and setting. In cells and extracts the contact can be indirect. These calls come from enrichment with a bait or labelling near it, and not all partners need be listed.
target: RKIP-3xFLAG fusion protein (UniProt P30086); assay: affinity purification with mass spectrometry; RKIP-3xFLAG from transfected SGC7901 cells held on anti-FLAG M2 magnetic beads (overnight, 4°C); 1D SDS-PAGE, in-gel trypsin digestion, ESI-Q-TOF MS/MS; 3xFLAG (blank carrier) and blank groups as controls; repeated three times

Amino acid sequences for entries named in this document (tags omitted).
UniProt P30086: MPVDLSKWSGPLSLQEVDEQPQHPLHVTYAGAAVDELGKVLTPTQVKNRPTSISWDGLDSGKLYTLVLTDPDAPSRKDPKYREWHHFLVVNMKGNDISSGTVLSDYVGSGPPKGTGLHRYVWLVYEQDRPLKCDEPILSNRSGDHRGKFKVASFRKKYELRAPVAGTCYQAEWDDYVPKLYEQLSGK

| Binder | binding |
| --- | --- |
| Annexin A1 (protein, UniProt P04083 1-346) MAMVSEFLKQAWFIENEEQEYVQTVKSSKGGPGSAVSPYPTFNPSSDVAALHKAIMVKGVDEATIIDILTKRNNAQRQQIKAAYLQETGKPLDETLKKALTGHLEEVVLALLKTPAQFDADELRAAMKGLGTDEDTLIEILASRTNKEIRDINRVYREELKRDLAKDITSDTSGDFRNALLSLAKGDRSEDFGVNEDLADSDARALYEAGERRKGTDVNVFNTILTTRSYPQLRRVFQKYTKYSKHDMNKVLDLELKGDIEKCLTAIVKCATSKPAFFAEKLHQAMKGVGTRHKALIRIMVSRSEIDMNDIKAFYQKMYGISLCQAILDETKGDYEKILVALCGGN | binds |
| Argininosuccinate synthase (protein, UniProt P00966 1-412) MSSKGSVVLAYSGGLDTSCILVWLKEQGYDVIAYLANIGQKEDFEEARKKALKLGAKKVFIEDVSREFVEEFIWPAIQSSALYEDRYLLGTSLARPCIARKQVEIAQREGAKYVSHGATGKGNDQVRFELSCYSLAPQIKVIAPWRMPEFYNRFKGRNDLMEYAKQHGIPIPVTPKNPWSMDENLMHISYEAGILENPKNQAPPGLYTKTQDPAKAPNTPDILEIEFKKGVPVKVTNVKDGTTHQTSLELFMYLNEVAGKHGVGRIDIVENRFIGMKSRGIYETPAGTILYHAHLDIEAFTMDREVRKIKQGLGLKFAELVYTGFWHSPECEFVRHCIAKSQERVEGKVQVSVLKGQVYILGRESPLSLYNEELVSMNVQGDYEPTDATGFININSLRLKEYHRLQSKVTAK | binds |
| Fructose-bisphosphate aldolase A (protein, UniProt P04075 1-364) MPYQYPALTPEQKKELSDIAHRIVAPGKGILAADESTGSIAKRLQSIGTENTEENRRFYRQLLLTADDRVNPCIGGVILFHETLYQKADDGRPFPQVIKSKGGVVGIKVDKGVVPLAGTNGETTTQGLDGLSERCAQYKKDGADFAKWRCVLKIGEHTPSALAIMENANVLARYASICQQNGIVPIVEPEILPDGDHDLKRCQYVTEKVLAAVYKALSDHHIYLEGTLLKPNMVTPGHACTQKFSHEEIAMATVTALRRTVPPAVTGITFLSGGQSEEEASINLNAINKCPLLKPWALTFSYGRALQASALKAWGGKKENLKAAQEEYVKRALANSLACQGKYTPSGQAGAAASESLFVSNHAY | binds |
| Heterogeneous nuclear ribonucleoprotein R, isoform 1 (protein, UniProt O43390 1-633) MANQVNGNAVQLKEEEEPMDTSSVTHTEHYKTLIEAGLPQKVAERLDEIFQTGLVAYVDLDERAIDALREFNEEGALSVLQQFKESDLSHVQNKSAFLCGVMKTYRQREKQGSKVQESTKGPDEAKIKALLERTGYTLDVTTGQRKYGGPPPDSVYSGVQPGIGTEVFVGKIPRDLYEDELVPLFEKAGPIWDLRLMMDPLSGQNRGYAFITFCGKEAAQEAVKLCDSYEIRPGKHLGVCISVANNRLFVGSIPKNKTKENILEEFSKVTEGLVDVILYHQPDDKKKNRGFCFLEYEDHKSAAQARRRLMSGKVKVWGNVVTVEWADPVEEPDPEVMAKVKVLFVRNLATTVTEEILEKSFSEFGKLERVKKLKDYAFVHFEDRGAAVKAMDEMNGKEIEGEEIEIVLAKPPDKKRKERQAARQASRSTAYEDYYYHPPPRMPPPIRGRGRGGGRGGYGYPPDYYGYEDYYDDYYGYDYHDYRGGYEDPYYGYDDGYAVRGRGGGRGGRGAPPPPRGRGAPPPRGRAGYSQRGAPLGPPRGSRGGRGGPAQQQRGRGSRGSRGNRGGNVGGKRKADGYNQPDSKRRQTNNQQNWGSQPIAQQPLQQGGDYSGNYGYNNDNQEFYQDTYGQQWK | binds |

Other lines, results leading:

| binding | Binder |
| --- | --- |
| binds | Tropomodulin-3 (protein, UniProt Q9NYL9 1-352) MALPFRKDLEKYKDLDEDELLGNLSETELKQLETVLDDLDPENALLPAGFRQKNQTSKSTTGPFDREHLLSYLEKEALEHKDREDYVPYTGEKKGKIFIPKQKPVQTFTEEKVSLDPELEEALTSASDTELCDLAAILGMHNLITNTKFCNIMGSSNGVDQEHFSNVVKGEKILPVFDEPPNPTNVEESLKRTKENDAHLVEVNLNNIKNIPIPTLKDFAKALETNTHVKCFSLAATRSNDPVATAFAEMLKVNKTLKSLNVESNFITGVGILALIDALRDNETLAELKIDNQRQQLGTAVELEMAKMLEENTNILKFGYQFTQQGPRTRAANAITKNNDLVRKRRVEGDHQ |
| binds | Peroxiredoxin-1 (protein, UniProt Q06830 1-199) MSSGNAKIGHPAPNFKATAVMPDGQFKDISLSDYKGKYVVFFFYPLDFTFVCPTEIIAFSDRAEEFKKLNCQVIGASVDSHFCHLAWVNTPKKQGGLGPMNIPLVSDPKRTIAQDYGVLKADEGISFRGLFIIDDKGILRQITVNDLPVGRSVDETLRLVQAFQFTDKHGEVCPAGWKPGSDTIKPDVQKSKEYFSKQK |
| binds | Malate dehydrogenase, mitochondrial (protein, UniProt P40926 25-338) AKVAVLGASGGIGQPLSLLLKNSPLVSRLTLYDIAHTPGVAADLSHIETKAAVKGYLGPEQLPDCLKGCDVVVIPAGVPRKPGMTRDDLFNTNATIVATLTAACAQHCPEAMICVIANPVNSTIPITAEVFKKHGVYNPNKIFGVTTLDIVRANTFVAELKGLDPARVNVPVIGGHAGKTIIPLISQCTPKVDFPQDQLTALTGRIQEAGTEVVKAKAGAGSATLSMAYAGARFVFSLVDAMNGKEGVVECSFVKSQETECTYFSTPLLLGKKGIEKNLGIGKVSSFEEKMISDAIPELKASIKKGEDFVKTLK |
| binds | Keratin, type I cytoskeletal 18 (protein, UniProt P05783 1-430) MSFTTRSTFSTNYRSLGSVQAPSYGARPVSSAASVYAGAGGSGSRISVSRSTSFRGGMGSGGLATGIAGGLAGMGGIQNEKETMQSLNDRLASYLDRVRSLETENRRLESKIREHLEKKGPQVRDWSHYFKIIEDLRAQIFANTVDNARIVLQIDNARLAADDFRVKYETELAMRQSVENDIHGLRKVIDDTNITRLQLETEIEALKEELLFMKKNHEEEVKGLQAQIASSGLTVEVDAPKSQDLAKIMADIRAQYDELARKNREELDKYWSQQIEESTTVVTTQSAEVGAAETTLTELRRTVQSLEIDLDSMRNLKASLENSLREVEARYALQMEQLNGILLHLESELAQTRAEGQRQAQEYEALLNIKVKLEAEIATYRRLLEDGEDFNLGDALDSSNSMQTIQKTTTRRIVDGKVVSETNDTKVLRH |
| binds | Rab GDP dissociation inhibitor beta (protein, UniProt P50395 1-445) MNEEYDVIVLGTGLTECILSGIMSVNGKKVLHMDRNPYYGGESASITPLEDLYKRFKIPGSPPESMGRGRDWNVDLIPKFLMANGQLVKMLLYTEVTRYLDFKVTEGSFVYKGGKIYKVPSTEAEALASSLMGLFEKRRFRKFLVYVANFDEKDPRTFEGIDPKKTTMRDVYKKFDLGQDVIDFTGHALALYRTDDYLDQPCYETINRIKLYSESLARYGKSPYLYPLYGLGELPQGFARLSAIYGGTYMLNKPIEEIIVQNGKVIGVKSEGEIARCKQLICDPSYVKDRVEKVGQVIRVICILSHPIKNTNDANSCQIIIPQNQVNRKSDIYVCMISFAHNVAAQGKYIAIVSTTVETKEPEKEIRPALELLEPIEQKFVSISDLLVPKDLGTESQIFISRTYDATTHFETTCDDIKNIYKRMTGSEFDFEEMKRKKNDIYGED |
| binds | Serpin H1 (protein, UniProt P50454 19-418) AEVKKPAAAAAPGTAEKLSPKAATLAERSAGLAFSLYQAMAKDQAVENILVSPVVVASSLGLVSLGGKATTASQAKAVLSAEQLRDEEVHAGLGELLRSLSNSTARNVTWKLGSRLYGPSSVSFADDFVRSSKQHYNCEHSKINFRDKRSALQSINEWAAQTTDGKLPEVTKDVERTDGALLVNAMFFKPHWDEKFHHKMVDNRGFMVTRSYTVGVMMMHRTGLYNYYDDEKEKLQIVEMPLAHKLSSLIILMPHHVEPLERLEKLLTKEQLKIWMGKMQKKAVAISLPKGVVEVTHDLQKHLAGLGLTEAIDKNKADLSRMSGKKDLYLASVFHATAFELDTDGNPFDQDIYGREELRSPKLFYADHPFIFLVRDTQSGSLLFIGRLVRPKGDKMRDEL |

From publication PMC3830446
